A short description of the data set: Odor description (olfactory evaluation).

These results are taken from patent US8399399B2, “3- and 4-methyl dodecenal and their use in fragrance and flavour compositions” (Givaudan SA, priority 2005, dated 2013).

In the case of `CCCCCCC/C=C/C(C)CC=O` (centres unmarked) [(E)-3-methyl-4-dodecenal], the Odor description entry is reported as “aldehydic, citrus-related, slightly carrot”.

Take `CCCCCCC/C=C(\C)CCC=O` [(E)-4-methyl-4-dodecenal, (E)-4-Methyl-4-dodecenal]: the Odor description entry is “aldehydic, orange, mandarin, slightly woody”.
